# Assay results as given in ChEMBL document CHEMBL1949514, “Design, Synthesis, and Antitumor Activity of 4-Halocolchicines and Their Pro-drugs Activated by Cathepsin B” (ACS Med Chem Lett, 2011).
# Tests used:
# HT-29 = assay: Cytotoxicity against human HT-29 cells after 96 hrs using tetracolor one; type: functional, cell-based; conditions: HT-29, 96 h
# A549 = assay: Cytotoxicity against human A549 cells after 96 hrs using tetracolor one; type: functional, cell-based; conditions: A549, 96 h
# HUVEC [1] = assay: Cytotoxicity against human HUVEC cells after 96 hrs using tetracolor one; type: ADME, cell-based
# HUVEC [2] = assay: Selectivity ratio of IC50 for human HUVEC cells to IC50 for human HT-29 cells
structure (smiles),measurement,setting,value
COc1cc2c(c(OC)c1OC)-c1ccc(OC)c(=O)cc1[C@@H](N)CC2 [DEACETYLCOLCHICINE],IC50,HT-29,25 nM
same,IC50,A549,36 nM
same,IC50,HUVEC [1],34 nM
same,Ratio IC50,HUVEC [2],1.4
